Values from PubChem BioAssay AID1224830 (NIAID, 2016).
Shown is a random part of about 18,000 deposited reagents. About 2,900 of all reagents (16%) count as active. 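Calls are made per well; low scores hint the gene aids the LPS response, high scores that it dampens it.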 Repeated entries: four replicate wells of each siRNA pool.

Assay: 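Host factors that control LPS-induced TNF expression in human macrophages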 (primary screen)
Cells: human THP-1 monocytic leukaemia cells, TNF dual-luciferase reporter clone, PMA-differentiated to macrophage-like cells
Knock-down reagent: siRNA pool against human genes, 50 nM
Duration: LPS for 4 h, given about 3 days after siRNA transfection
Challenge: bacterial LPS (TLR4 ligand), 10 ng/ml
Measurement: 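TNF firefly reporter luminescence divided by renilla, normalised to the plate median, then turned into a robust z-score for each replicate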
Reading the numbers: TNF reporter robust z-score: higher = stronger TNF reporter response to LPS
Rule for the call: 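Each well counts as active if its z-score is over 2.8 or under -1.5; controls are left without a call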

BRINP1 (GeneID 1620): TNF reporter robust z-score = 0.6; Outcome = inactive
BRINP1 (GeneID 1620): TNF reporter robust z-score = 0.35; Outcome = inactive
BRINP1 (GeneID 1620): TNF reporter robust z-score = -0.5; Outcome = inactive
BRINP1 (GeneID 1620): TNF reporter robust z-score = 0.46; Outcome = inactive
CYB561D2 (GeneID 11068): TNF reporter robust z-score = 0.13; Outcome = inactive
CYB561D2 (GeneID 11068): TNF reporter robust z-score = 1.58; Outcome = inactive
CYB561D2 (GeneID 11068): TNF reporter robust z-score = 0.67; Outcome = inactive
CYB561D2 (GeneID 11068): TNF reporter robust z-score = 1.41; Outcome = inactive
IFIT1 (GeneID 3434): TNF reporter robust z-score = 3.74; Outcome = active
IFIT1 (GeneID 3434): TNF reporter robust z-score = 2.53; Outcome = inactive
IFIT1 (GeneID 3434): TNF reporter robust z-score = 2.4; Outcome = inactive
IFIT1 (GeneID 3434): TNF reporter robust z-score = 3.6; Outcome = active
COL4A4 (GeneID 1286): TNF reporter robust z-score = 3.41; Outcome = active
COL4A4 (GeneID 1286): TNF reporter robust z-score = 2.55; Outcome = inactive
COL4A4 (GeneID 1286): TNF reporter robust z-score = 0.35; Outcome = inactive
COL4A4 (GeneID 1286): TNF reporter robust z-score = 3.32; Outcome = active
ZNF670 (GeneID 93474): TNF reporter robust z-score = -0.21; Outcome = inactive
ZNF670 (GeneID 93474): TNF reporter robust z-score = -0.54; Outcome = inactive
ZNF670 (GeneID 93474): TNF reporter robust z-score = -0.72; Outcome = inactive
ZNF670 (GeneID 93474): TNF reporter robust z-score = -0.04; Outcome = inactive
RGS11 (GeneID 8786): TNF reporter robust z-score = -0.39; Outcome = inactive
RGS11 (GeneID 8786): TNF reporter robust z-score = 0.48; Outcome = inactive
RGS11 (GeneID 8786): TNF reporter robust z-score = -0.86; Outcome = inactive
RGS11 (GeneID 8786): TNF reporter robust z-score = 1.02; Outcome = inactive
ZNF141 (GeneID 7700): TNF reporter robust z-score = -0.89; Outcome = inactive
ZNF141 (GeneID 7700): TNF reporter robust z-score = -2.27; Outcome = active
ZNF141 (GeneID 7700): TNF reporter robust z-score = -1.16; Outcome = inactive
ZNF141 (GeneID 7700): TNF reporter robust z-score = -0.87; Outcome = inactive
COX7B2 (GeneID 170712): TNF reporter robust z-score = 0.55; Outcome = inactive
COX7B2 (GeneID 170712): TNF reporter robust z-score = -0.03; Outcome = inactive
COX7B2 (GeneID 170712): TNF reporter robust z-score = 0.32; Outcome = inactive
COX7B2 (GeneID 170712): TNF reporter robust z-score = 0.45; Outcome = inactive

5 consecutive records already listed, quoted:
ZNF670 (GeneID 93474): TNF reporter robust z-score = -0.21; Outcome = inactive
ZNF670 (GeneID 93474): TNF reporter robust z-score = -0.54; Outcome = inactive
ZNF670 (GeneID 93474): TNF reporter robust z-score = -0.72; Outcome = inactive
ZNF670 (GeneID 93474): TNF reporter robust z-score = -0.04; Outcome = inactive
RGS11 (GeneID 8786): TNF reporter robust z-score = -0.39; Outcome = inactive
